Experimental data taken from the supplement of paper PMC4604168 (melanoma cell lines).
Some of the results follow. Repeats are few or missing, and single values can be far off.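 The apoptosis fraction was the count of cleaved-PARP antibody-stained nuclei relative to all DNA-stained nuclei, imaged in 1,536-well plates. Screening doses were set so most cells survived, and baseline and induced cleaved-PARP levels vary greatly across cell lines.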

Tests used:
Test in all cases: cleaved PARP positive nuclei fraction relative to DMSO control; melanoma cells; higher = more apoptosis
Details in all cases: library dose: low library concentration; 72 h
501Mel = tested on: 501Mel
A101D = tested on: A101D
A2058 = tested on: A2058
A375 = tested on: A375
C32 = tested on: C32
CBRC013 = tested on: CBRC013 (line from a melanoma biopsy)
CBRC014 = tested on: CBRC014 (line from a melanoma biopsy)
CBRC016 = tested on: CBRC016 (line from a melanoma biopsy)
CBRC017 = tested on: CBRC017 (line from a melanoma biopsy)

SMILES	cleaved PARP positive nuclei fraction (501Mel)	cleaved PARP positive nuclei fraction (A101D)	cleaved PARP positive nuclei fraction (A2058)	cleaved PARP positive nuclei fraction (A375)	cleaved PARP positive nuclei fraction (C32)	cleaved PARP positive nuclei fraction (CBRC013)	cleaved PARP positive nuclei fraction (CBRC014)	cleaved PARP positive nuclei fraction (CBRC016)	cleaved PARP positive nuclei fraction (CBRC017)
N#Cc1c(O)c2c(-c3ccc(-c4ccccc4O)cc3)csc2[nH]c1=O + O=c1cc(-c2cccc3c2Sc2ccccc2S3)oc(N2CCOCC2)c1 [KU55933] (first compound 2 µM, partner dose 1 µM)	83.3%	140%	147%	91.4%	43.6%	74.4%	87.2%	40.2%	129%
CCc1ccc(CCOc2ccc(CC3SC(=O)NC3=O)cc2)nc1 (stereo unspecified) [pioglitazone] + O=c1cc(-c2cccc3c2Sc2ccccc2S3)oc(N2CCOCC2)c1 [KU55933] (first compound 2 µM, partner dose 1 µM)	44.2%	114%	209%	139%	43.7%	94.1%	110%	122%	80.1%
Oc1cc(-c2nc(-c3ccccc3)[nH]c2-c2ccncc2)ccc1Cl + Cc1cc([N+](=O)[O-])ccc1NS(=O)(=O)c1cc(Cl)ccc1Cl [FH535] (first compound 0.2 µM, partner dose 1 µM)	259%	121%	81.9%	265%	164%	356%	136%	767%	749%
COc1ccc2c(c1)CCC1C2CCC2(C)C(NCCCCCCN3C(=O)C=CC3=O)CCC12 (stereo unspecified) + CC(C)CCN1c2nc(Nc3cc(F)c(O)c(F)c3)ncc2N(C)C(=O)C1C [BID1870] (first compound 0.4 µM, partner dose 0.2 µM)	155%	127%	34.2%	549%	49%	66.4%	113%	153%	110%
CCc1ccc(CCOc2ccc(CC3SC(=O)NC3=O)cc2)nc1 (stereo unspecified) [pioglitazone] + Oc1nc(-c2ccc(C(F)(F)F)cc2)nc2c1CSCC2 [XAV939] (first compound 2 µM, partner dose 2 µM)	40.7%	318%	187%	77.6%	144%	249%	102%	61.9%	79.5%
CCN(CC)CCCCNc1ncc2cc(-c3cc(OC)cc(OC)c3)c(NC(=O)NC(C)(C)C)nc2n1 + CC(C)CCN1c2nc(Nc3cc(F)c(O)c(F)c3)ncc2N(C)C(=O)C1C [BID1870] (first compound 0.1 µM, partner dose 0.2 µM)	82.9%	85.8%	31.3%	111%	61.3%	247%	85.8%	49.6%	64.2%
O=C(O)c1ccc(-c2c[nH]c3ncc(-c4ccccc4)cc23)cc1C1CCCC1 + Oc1cc(-c2nc(-c3ccccc3)[nH]c2-c2ccncc2)ccc1Cl [L779450] (first compound 0.16 µM, partner dose 0.2 µM)	228%	111%	11.4%	415%	126%	135%	107%	117%	95.8%
CN(C)S(=O)(=O)c1ccc2c(c1)/C(=C/c1cc3c([nH]1)CCCC3)C(=O)N2 + COc1ccc(COc2ccc(Cc3cnc(N)nc3N)cc2OC)cc1 [GW2580] (first compound 0.4 µM, partner dose 1 µM)	74.6%	142%	50.5%	43.4%	63.4%	75.1%	107%	66.5%	94.7%
Cc1cc([N+](=O)[O-])ccc1NS(=O)(=O)c1cc(Cl)ccc1Cl + COc1cc(N2CCC(N3CCN(C)CC3)CC2)ccc1Nc1ncc(Cl)c(Nc2ccccc2S(=O)(=O)C(C)C)n1 [NVP-TAE684] (first compound 1 µM, partner dose 0.08 µM)	48.4%	350%	109%	78.4%	198%	135%	150%	3300%	571%
O=S(=O)(c1ccccc1)N(CC(F)(F)F)c1ccc(C(O)(C(F)(F)F)C(F)(F)F)cc1 + Oc1cc(-c2nc(-c3ccccc3)[nH]c2-c2ccncc2)ccc1Cl [L779450] (first compound 1.4 µM, partner dose 0.2 µM)	119%	266%	55.6%	143%	146%	144%	125%	101%	62.7%
NCC(=O)Nc1ccc(-n2nc(C(F)(F)F)cc2-c2ccc3c(ccc4ccccc43)c2)cc1 + O=C(O)C(=O)Nc1sc2c(c1C(=O)O)CCNC2 [TCS401] (first compound 1 µM, partner dose 1.66667 µM)	395%	70.3%	62.4%	2710%	211%	74.7%	98.9%	152%	67.5%
N#Cc1c(O)c2c(-c3ccc(-c4ccccc4O)cc3)csc2[nH]c1=O + COc1ccc2c(c1)CCC1C2CCC2(C)C(NCCCCCCN3C(=O)C=CC3=O)CCC12 [U73122] (first compound 2 µM, partner dose 0.4 µM)	87%	106%	127%	108%	201%	279%	98.9%	105%	100%
COc1ccc2c(c1)CCC1C2CCC2(C)C(NCCCCCCN3C(=O)C=CC3=O)CCC12 (stereo unspecified) + O=c1cc(-c2cccc3c2Sc2ccccc2S3)oc(N2CCOCC2)c1 [KU55933] (first compound 0.4 µM, partner dose 1 µM)	53.6%	155%	53.1%	126%	68.4%	98.6%	98.6%	125%	85.3%
O=C1NC(=O)/C(=C/c2ccc(-c3ccc(F)cc3O)o2)S1 + Cn1cc(/C=C2\C(=O)Nc3cccnc32)c2ccccc21 [GW441756] (first compound 1 µM, partner dose 0.4 µM)	36.4%	234%	75.5%	124%	122%	391%	304%	99%	87.6%
COc1ccc2c(c1)CCC1C2CCC2(C)C(NCCCCCCN3C(=O)C=CC3=O)CCC12 (stereo unspecified) + Oc1cc(-c2nc(-c3ccccc3)[nH]c2-c2ccncc2)ccc1Cl [L779450] (first compound 0.4 µM, partner dose 0.2 µM)	108%	98.2%	135%	259%	39.9%	30.6%	196%	79.9%	181%
COc1ccc(COc2ccc(Cc3cnc(N)nc3N)cc2OC)cc1 + CC(C)CCN1c2nc(Nc3cc(F)c(O)c(F)c3)ncc2N(C)C(=O)C1C [BID1870] (first compound 1 µM, partner dose 0.2 µM)	86%	162%	99.7%	138%	44.7%	372%	106%	81.8%	86%
O=C(O)c1ccc(-c2c[nH]c3ncc(-c4ccccc4)cc23)cc1C1CCCC1 + CCCCCCCCCCCC1=C(O)C(=O)C=C(O)C1=O [Embelin] (first compound 0.16 µM, partner dose 1.2 µM)	225%	104%	119%	177%	83%	220%	96.4%	110%	94.1%
O=S(=O)(c1ccccc1)N(CC(F)(F)F)c1ccc(C(O)(C(F)(F)F)C(F)(F)F)cc1 + CCCCCCCCCCCC1=C(O)C(=O)C=C(O)C1=O [Embelin] (first compound 1.4 µM, partner dose 1.2 µM)	35%	86.3%	130%	44.9%	141%	49.2%	97.3%	20%	78.1%
N#Cc1c(O)c2c(-c3ccc(-c4ccccc4O)cc3)csc2[nH]c1=O + Cc1cc([N+](=O)[O-])ccc1NS(=O)(=O)c1cc(Cl)ccc1Cl [FH535] (first compound 2 µM, partner dose 1 µM)	82.3%	162%	40%	76.1%	54.6%	613%	329%	1180%	665%
CN(C)S(=O)(=O)c1ccc2c(c1)/C(=C/c1cc3c([nH]1)CCCC3)C(=O)N2 + COc1cc(N2CCC(N3CCN(C)CC3)CC2)ccc1Nc1ncc(Cl)c(Nc2ccccc2S(=O)(=O)C(C)C)n1 [NVP-TAE684] (first compound 0.4 µM, partner dose 0.08 µM)	94.8%	80.3%	133%	180%	192%	634%	109%	58.6%	87.6%
COc1ccc(COc2ccc(Cc3cnc(N)nc3N)cc2OC)cc1 + O=c1cc(-c2cccc3c2Sc2ccccc2S3)oc(N2CCOCC2)c1 [KU55933] (first compound 1 µM, partner dose 1 µM)	81.9%	55.5%	49.6%	137%	46.8%	55.2%	95.1%	114%	87%
COc1cc(N2CCC(N3CCN(C)CC3)CC2)ccc1Nc1ncc(Cl)c(Nc2ccccc2S(=O)(=O)C(C)C)n1 + CCCCCCCCCCCC1=C(O)C(=O)C=C(O)C1=O [Embelin] (first compound 0.08 µM, partner dose 1.2 µM)	181%	69%	130%	82.9%	76.3%	178%	92.2%	36%	158%
COc1ccc2c(c1)CCC1C2CCC2(C)C(NCCCCCCN3C(=O)C=CC3=O)CCC12 (stereo unspecified) + Oc1nc(-c2ccc(C(F)(F)F)cc2)nc2c1CSCC2 [XAV939] (first compound 0.4 µM, partner dose 2 µM)	34.4%	121%	55%	512%	132%	188%	99.2%	147%	104%
NCC(=O)Nc1ccc(-n2nc(C(F)(F)F)cc2-c2ccc3c(ccc4ccccc43)c2)cc1 + COc1ccc2c(c1)CCC1C2CCC2(C)C(NCCCCCCN3C(=O)C=CC3=O)CCC12 [U73122] (first compound 1 µM, partner dose 0.4 µM)	279%	122%	90%	5480%	84%	180%	95.1%	140%	136%

4 consecutive records already listed, quoted:
SMILES	cleaved PARP positive nuclei fraction (501Mel)	cleaved PARP positive nuclei fraction (A101D)	cleaved PARP positive nuclei fraction (A2058)	cleaved PARP positive nuclei fraction (A375)	cleaved PARP positive nuclei fraction (C32)	cleaved PARP positive nuclei fraction (CBRC013)	cleaved PARP positive nuclei fraction (CBRC014)	cleaved PARP positive nuclei fraction (CBRC016)	cleaved PARP positive nuclei fraction (CBRC017)
O=C(O)c1ccc(-c2c[nH]c3ncc(-c4ccccc4)cc23)cc1C1CCCC1 + Oc1cc(-c2nc(-c3ccccc3)[nH]c2-c2ccncc2)ccc1Cl [L779450] (first compound 0.16 µM, partner dose 0.2 µM)	228%	111%	11.4%	415%	126%	135%	107%	117%	95.8%
CN(C)S(=O)(=O)c1ccc2c(c1)/C(=C/c1cc3c([nH]1)CCCC3)C(=O)N2 + COc1ccc(COc2ccc(Cc3cnc(N)nc3N)cc2OC)cc1 [GW2580] (first compound 0.4 µM, partner dose 1 µM)	74.6%	142%	50.5%	43.4%	63.4%	75.1%	107%	66.5%	94.7%
Cc1cc([N+](=O)[O-])ccc1NS(=O)(=O)c1cc(Cl)ccc1Cl + COc1cc(N2CCC(N3CCN(C)CC3)CC2)ccc1Nc1ncc(Cl)c(Nc2ccccc2S(=O)(=O)C(C)C)n1 [NVP-TAE684] (first compound 1 µM, partner dose 0.08 µM)	48.4%	350%	109%	78.4%	198%	135%	150%	3300%	571%
O=S(=O)(c1ccccc1)N(CC(F)(F)F)c1ccc(C(O)(C(F)(F)F)C(F)(F)F)cc1 + Oc1cc(-c2nc(-c3ccccc3)[nH]c2-c2ccncc2)ccc1Cl [L779450] (first compound 1.4 µM, partner dose 0.2 µM)	119%	266%	55.6%	143%	146%	144%	125%	101%	62.7%
